In all, about 400,000 compounds went through this assay and about 13,000 (3.2%) were called active. The shares of active, inactive and inconclusive entries below differ from those in the screen. The call rests on the fitted dose curve; in most records, active means well fitted cell-killing curve with a large enough effect; inconclusive means small, poorly fitted or top-dose-only effect, or effect the other way; inactive means flat fitted curve, though single readings scatter. Potencies of inconclusive entries are doubtful fits and often do not repeat.
Assay: qHTS assay for MDR1-selective chemotherapeutics: Primary screen using the drug-selected MDR subline cells KB-V1; further: nearly all actives have a fitted effect of over 60% in size
Conditions: KB-V1 MDR cells viability, CellTiter-Glo, 72 h; series mostly up to 46.1 µM
Summary of the method: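 Readout: CellTiter-Glo luminescence, 10 min after addition. Cells: KB-V1 MDR subline, 72 h at 37 degrees C with compound. Analysis: corrected, normalized data fitted to concentration-effect curves.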
Potency means the concentration at half of the fitted maximal effect.

SMILES | Potency
O=C(NC1CCCC1)C1C(c2ccc(C(F)(F)F)cc2)=Nc2ccccc2N1C(=O)c1cccc(C(F)(F)F)c1 (stereo not drawn) | inactive
COC(=O)c1cn(C(=O)c2ccc(Br)o2)c2ccccc12 | inconclusive: 0.184 µM [rising, full curve, poor fit]
Cc1[nH]n(-c2ccccc2)c(=O)c1N=Nc1ccccc1O | inactive
CCn1c(=O)c2cc(C(=O)N(CC(C)C)CC(C)C)sc2c2ccccc21 | inconclusive: 20.6 µM [cytotoxic, partial curve]
COc1cc(C(=O)Nc2ccccc2C2COC(=O)C2=N)cc(OC)c1OC (stereo not drawn) | active: 11.6 µM
CCC(CC)NC(=O)c1ccc(NS(=O)(=O)c2ccc3[nH]c(=O)[nH]c3c2)cc1 | inactive
COc1ccc(Br)cc1CNC(=O)C1CCN(C(=O)N(C)C)CC1 | inconclusive: 29.1 µM [cytotoxic, partial curve, poor fit]
O=C1NC[C@@H](CCCCN2C[C@H](Cc3ccccc3)N(CCC3CCCCC3)C(=O)C2=O)N(Cc2ccccc2)C1=O | inconclusive: 32.6 µM [cytotoxic, partial curve, poor fit]
Cc1cccc(-n2c(SCC(N)=O)nc3c(c2=O)C2(CCCCC2)Cc2ccccc2-3)c1 | active: 18.4 µM
CCn1c(SCC(=O)Nc2ccccc2N2CCOCC2)nnc1-c1ccccc1 | active: 18.4 µM
CCCn1c(=O)c(C(=O)Nc2ccccc2C(=O)OCC)c(O)c2ccccc21 | inconclusive: 2.51 µM [cytotoxic, partial curve, poor fit]
COc1ccc(S(=O)(=O)N2CCOCC2)cc1NC(=O)COC(=O)c1oc2ccccc2c1C | inconclusive: 29.1 µM [cytotoxic, single point]
COC(=O)c1c(N)sc(C(=O)NCCc2ccccc2)c1C | inconclusive: 29.1 µM [cytotoxic, single point]
CCOC(=O)C1=C(Nc2ccccc2)CC(C)(O)C(C(=O)OCC)C1c1ccccc1 (stereo not drawn) | inconclusive: 23.1 µM [cytotoxic, single point]
CC(=O)c1ccc2c(c1)Nc1ccccc1S2 | inconclusive: 23.1 µM [cytotoxic, partial curve]
COC(=O)[C@@]12C[C@@H](CC(=O)NCc3cccc(C(F)(F)F)c3)C(=O)N(Cc3ccco3)C1=CCC(C)(C)C2 | inconclusive: 18.4 µM [cytotoxic, partial curve]
Cc1ccc(C(=O)N2CCCCC2C(=O)O)cc1S(=O)(=O)N1CCCCC1 (stereo not drawn) | inactive
CC1(C)Cc2cccc(OCC(=O)NCCc3ccccc3)c2O1 | inconclusive: 11.6 µM [cytotoxic, partial curve]
O=C(/C=C/c1ccccc1)n1cnnc1SC/C=C/c1ccccc1 | inactive
COC(=O)c1ccccc1NC(=O)C1CC(c2ccccc2O)=NO1 (stereo not drawn) | inactive
O=C(Nc1ccc(F)c(Cl)c1)C1Cc2c(-c3ccco3)ccnc2O1 (stereo not drawn) | active: 20.6 µM
Cc1noc2ncnc(N3CCCCC3)c12 | inactive

3 of these compounds, set out differently:
SMILES	Potency
CCn1c(=O)c2cc(C(=O)N(CC(C)C)CC(C)C)sc2c2ccccc21	inconclusive: 20.6 µM [cytotoxic, partial curve]
COc1cc(C(=O)Nc2ccccc2C2COC(=O)C2=N)cc(OC)c1OC (stereo not drawn)	active: 11.6 µM
CCC(CC)NC(=O)c1ccc(NS(=O)(=O)c2ccc3[nH]c(=O)[nH]c3c2)cc1	inactive

Next compounds follow.

SMILES | Potency
Clc1cccc(N/N=C/c2ccc(N3CCOCC3)s2)c1 | inconclusive: 29.1 µM [cytotoxic, single point]
O=C(O)c1cc2nc(C3CC3)cc(C(F)(F)F)n2n1 | inconclusive: 5.8 µM [rising, full curve]
Cn1c(SCc2ccc(F)cc2)nnc1-c1cccs1 | active: 16.4 µM
COc1ccc(-c2nc(=S)c3c(n2CCN2CCOCC2)CC(C)(C)OC3)cc1 | inactive
CN1C(=O)C(C)(C)c2cc(S(=O)(=O)N3CCCC3C(=O)NCc3ccc(F)cc3)ccc21 (stereo not drawn) | inconclusive: 29.1 µM [rising, partial curve, poor fit]
Cc1nn(CC(=O)N2CCCC2)c(=O)c2nn(-c3ccccc3)c(C)c12 | inconclusive: 29.1 µM [rising, single point]
CC(C)CC(C(=O)NC1CCCC1)N(Cc1cccs1)C(=O)c1snc(C(N)=O)c1N (stereo not drawn) | inconclusive: 5.17 µM [cytotoxic, partial curve]
O=c1c2ccccc2ncn1-c1ccc([N+](=O)[O-])cc1[N+](=O)[O-] | inconclusive: 29.1 µM [cytotoxic, single point]
O=C(O)c1ccc(NC(=O)c2cccc(N3C(=O)C4C5CCC(C5)C4C3=O)c2)cc1 (stereo not drawn) | inconclusive: 18.4 µM [rising, single point]
COc1ccc(CCNC(=O)CCc2c(C)nc3cc(-c4ccccc4OC)nn3c2C)c(OC)c1 | inactive
OCCCNc1nc(-c2ccccc2)c2cc(Cl)ccc2n1 | inconclusive: 18.4 µM [cytotoxic, partial curve]
CCOC(=O)C1CCN(C(=O)c2ccc3c(=O)n4nc(Nc5ccccc5OC)sc4nc3c2)CC1 | inactive
CCOC(=O)N1CCN(c2ncc3c(n2)CC(c2ccccc2O)CC3=O)CC1 (stereo not drawn) | active: 18.4 µM
c1csc(-c2nc3ccccn3c2NC2CCCCC2)c1 | inconclusive: 2.31 µM [cytotoxic, partial curve, poor fit]
O=Cc1ccc(OCc2ccc3ccccc3c2)cc1 | inconclusive: 14.6 µM [rising, partial curve, poor fit]
CC1(C)Cc2cccc(OCC(=O)N3CCN(c4ccccc4Cl)CC3)c2O1 | inconclusive: 10.3 µM [cytotoxic, partial curve, poor fit]
COc1ccc(CNC(=O)CN2C(=O)COc3ccc(S(=O)(=O)NC4CCCC4)cc32)cc1 | inconclusive: 1.46 µM [rising, full curve]
Cc1ccc(S(=O)(=O)N/N=C\c2ccccc2OCc2ccccc2)cc1 | inconclusive: 29.1 µM [cytotoxic, single point]
Cc1cc(C)cc(N(CC(=O)NC2CCCCC2)C(=O)CCC(=O)Nc2cc(C)ccn2)c1 | inconclusive: 5.8 µM [cytotoxic, full curve]
CCn1c(=O)cc(SCC(=O)NCc2ccco2)c2ccccc21 | inconclusive: 23.1 µM [cytotoxic, single point]
CC12CCC(C/C1=N\N=C1\NC(=O)/C(=C\c3ccc(Cl)cc3)S1)C2(C)C (stereo not drawn) | inconclusive: 20.6 µM [cytotoxic, partial curve, poor fit]
